The test concerns the target Arabidopsis SUPPRESSOR OF OVEREXPRESSION OF CONSTANS1 (SOC1) (Arabidopsis thaliana) (UniProt O64645). As to the kind of experiment: two-hybrid; GAL4 system; baits in pDEST32 (strain PJ69-4α), preys in pDEST22 (strain PJ69-4a), mated; growth scored on media lacking Trp, Leu and His with 0, 1, 3 and 5 mM 3-amino-1,2,4-triazole, 4 d at 20 °C; reciprocal tests in duplicate for all combinations.

Sequences of proteins named here, by UniProt entry; tags and fusion partners are left off.
UniProt O64645: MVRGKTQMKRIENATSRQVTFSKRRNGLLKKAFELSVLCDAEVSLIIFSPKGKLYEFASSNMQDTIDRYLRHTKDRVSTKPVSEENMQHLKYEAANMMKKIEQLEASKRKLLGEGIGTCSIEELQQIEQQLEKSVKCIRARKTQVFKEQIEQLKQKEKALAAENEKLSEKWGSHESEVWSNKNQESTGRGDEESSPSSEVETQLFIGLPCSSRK

No constants are given. Whether binding was seen depends on the method and setting. Some binding calls cover weakened binding; strength is not graded here.

For “Arabidopsis SUPPRESSOR OF OVEREXPRESSION OF CONSTANS1 (SOC1) (from UniProt O64645 1-214)”, the binding result was “binds”.

(Values after article PMC4507769.)
